This is an account of results in publication PMC8754138.

Results are given in words; binding and its absence hold for the method and conditions named. For part of these data: Binding can be weak; no strength is given. Tags and fused reporters may be left off the sequences shown.

What all share (experiment): two-hybrid
For test [1], the target named is T1, PorK, BACTH fusion (P. gingivalis) (UniProt B2RLF0).
T1 sequence: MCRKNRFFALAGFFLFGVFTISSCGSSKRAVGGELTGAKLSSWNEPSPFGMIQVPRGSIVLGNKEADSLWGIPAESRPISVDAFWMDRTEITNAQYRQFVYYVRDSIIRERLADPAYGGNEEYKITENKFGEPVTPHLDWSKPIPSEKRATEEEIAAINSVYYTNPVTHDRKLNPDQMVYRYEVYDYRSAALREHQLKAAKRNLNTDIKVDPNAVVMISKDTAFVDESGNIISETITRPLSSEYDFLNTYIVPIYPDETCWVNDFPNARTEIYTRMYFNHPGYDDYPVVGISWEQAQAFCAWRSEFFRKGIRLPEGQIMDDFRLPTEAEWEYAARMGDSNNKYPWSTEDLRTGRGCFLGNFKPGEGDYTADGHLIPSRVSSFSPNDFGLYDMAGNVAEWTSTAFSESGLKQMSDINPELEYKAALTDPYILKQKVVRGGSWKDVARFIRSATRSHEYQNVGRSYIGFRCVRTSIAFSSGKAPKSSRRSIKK

In test [2] the target is T2, PorN, BACTH fusion (P. gingivalis) (UniProt B2RLE7).
T2 sequence: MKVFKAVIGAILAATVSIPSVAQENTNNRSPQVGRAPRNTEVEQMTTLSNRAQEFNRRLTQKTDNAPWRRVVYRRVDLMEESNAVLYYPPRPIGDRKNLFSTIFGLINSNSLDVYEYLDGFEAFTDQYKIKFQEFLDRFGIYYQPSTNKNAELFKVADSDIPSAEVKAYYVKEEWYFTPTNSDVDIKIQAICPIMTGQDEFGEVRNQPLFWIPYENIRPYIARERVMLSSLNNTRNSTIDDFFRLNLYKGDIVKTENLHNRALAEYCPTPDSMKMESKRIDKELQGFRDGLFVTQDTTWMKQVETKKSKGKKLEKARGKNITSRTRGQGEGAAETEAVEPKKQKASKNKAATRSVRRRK

Test [3] deals with PorW D6 C-terminal domain, BACTH fusion (P. gingivalis).

Regarding “PorD without its signal peptide, BACTH fusion (P. gingivalis)”, the binding entry in test [1] and in test [2] was “no binding” in each case.

B1: PorN, BACTH fusion (protein, UniProt B2RLE7 1-359)
chain: T2 sequence
B1: in test [3], the binding entry is “binds”.
